Assay results: PubChem BioAssay AID434947 (Broad Institute, 2010)
In all, about 2,200 compounds went through this assay and about 15 (0.7%) were called active.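 Rule for the calls: active = fitted half-maximal concentration for loss of luminescence signal no more than a set limit of log units above the top tested concentration; inconclusive = flat fit with 30 to 70% signal loss, or invalid fit; inactive = half-maximal concentration above that set limit.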 This is one part of the list.

experiment: inhibitors of ADP-Glo detection reagents, dose response, artefact control for GSK3beta inhibitor project, biochemical, luminescence, cell-free, homogeneous (AID 434947); conditions: 5 uM ADP;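 note: kinase-free counter screen of ADP-Glo detection reagents for GSK3beta hits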

EC50, inactive:
CC(C)(C)c1ccc(/C=N/n2cnnc2)cc1 > 30 µM
CCN1CCN(c2cc(C)c3cc(NC(=O)CCC(=O)Nc4ccc(OC)cc4OC)ccc3n2)CC1 > 30 µM
COc1ccc(OC)c(Nc2nc(NCCCN(C)C)nc(N)c2[N+](=O)[O-])c1 > 30 µM
CS(=O)(=O)c1ccccc1-c1nnc(NC(=O)c2ccc3ncsc3c2)o1 > 30 µM
O=C(OCCCOC(=O)c1ccc(O)cc1)c1ccc(O)cc1 > 30 µM
Nc1nc(NCc2ccco2)nc(Nc2ccccc2)c1[N+](=O)[O-] > 30 µM
NC(=O)C1CCN(c2nc3c(S(=O)(=O)c4ccccc4)nnn3c3ccccc23)CC1 > 30 µM
Nc1nonc1-n1nnc(C(=O)N/N=C/c2ccccc2F)c1CN1CCc2ccccc21 > 30 µM
Cc1nnc2n(-c3ccccc3)c(=O)c3c4c(sc3n12)CCCC4 > 30 µM
O=C(Nc1nccs1)C1CCCN1S(=O)(=O)c1cccc2cccnc12 (stereo unspecified) > 30 µM
O=C(CCSc1nnc(-c2ccncc2)o1)Nc1ccc(F)cc1 > 30 µM
O=C(O)c1cc(-c2ccc(/C=N/NC(=S)Nc3ccccc3)o2)ccc1Cl > 30 µM
Cc1cccc2cc3c(NC(=O)C(C)(C)C)nn(CC(C)C)c3nc12 > 30 µM
c1ccc(CNc2nc(-c3cccnc3)nc3ccccc23)cc1 > 30 µM
Cc1ccc(-n2nc3c(N4CCC(C(=O)N5CCCCCC5)CC4)nnc(C)c3c2C)cc1 > 30 µM
O=[N+]([O-])c1ccccc1Oc1ccccc1Cl > 30 µM
COc1ccccc1-c1c(C(F)(F)F)oc2c(CN(C)C)c(O)ccc2c1=O > 30 µM
COc1ccc(OC)c(Nc2nc(NCCC(C)C)nc(N)c2[N+](=O)[O-])c1 > 30 µM
CCc1ccc(Oc2ncnc(N)c2[N+](=O)[O-])cc1 > 30 µM
Cc1c(Cc2ccccc2)c(=O)oc2cc(O)cc(O)c12 > 30 µM
CCOC(=O)c1sc2c(c1C)C(c1cccs1)C1=C(CCCC1=O)N2 (stereo unspecified) > 30 µM
CC(C)[C@H](CO)Nc1nc(NCc2ccc(S(N)(=O)=O)cc2)c2ncn(C(C)C)c2n1 > 30 µM
CC(=O)N1CCc2c(sc(NC(=O)Cc3ccc(F)cc3)c2C(N)=O)C1 > 30 µM
CCNC(=S)Nc1ccc2cn[nH]c2c1 > 30 µM
CC(C)n1cnc2c(Nc3cccc(Cl)c3)nc(NCCCO)nc21 > 30 µM
Cc1nccc(-c2cccc(NC(=O)c3ccccc3Cl)c2)n1 > 30 µM
CC(C(=O)NCc1ccco1)n1cc([N+](=O)[O-])cn1 (stereo unspecified) > 30 µM
C[C@@H]1O[C@@H](OC[C@H]2O[C@@H](Oc3c(-c4ccc(O)c(O)c4)oc4cc(O)cc(O)c4c3=O)[C@H](O)[C@@H](O)[C@@H]2O)[C@H](O)[C@H](O)[C@H]1O > 30 µM
CN(C)c1nc(N)c([N+](=O)[O-])c(NCC2CCCO2)n1 (stereo unspecified) > 30 µM
N#Cc1ccc(CSc2nnc(-c3ccncc3)o2)cc1 > 30 µM
COC(=O)c1sccc1NC(=O)c1cccc(OC)c1 > 30 µM
Cc1c(NC(=O)CSc2nnc3sc4ccccc4n23)c(=O)n(-c2ccccc2)n1C > 30 µM
Cc1nnc(SCC(=O)Nc2ccc(Cl)cn2)[nH]c1=O > 30 µM
Cc1ccc(Nc2nc(N)c([N+](=O)[O-])c(NCc3ccco3)n2)cc1 > 30 µM
COc1ccc2c(c1)-c1c(sn(-c3ccccc3)c1=S)C(C)(C)N2 > 30 µM
CCOC(=O)c1cnc2ccc(OCC)cc2c1N1CCN(c2ccccc2)CC1 > 30 µM
Cc1nc(NCCCn2ccnc2)c2ccccc2n1 > 30 µM
COc1ccc(-c2nnc3ccc(SCC(N)=O)nn23)cc1OC > 30 µM
N#Cc1ccccc1CSc1nnc(Cc2ccccc2)o1 > 30 µM
CCC(C)Nc1nc(N)c([N+](=O)[O-])c(NCc2ccccc2)n1 (stereo unspecified) > 30 µM
COc1ccc(NC(=O)c2cccc(N3C(=O)c4cccc([N+](=O)[O-])c4C3=O)c2)cc1 > 30 µM
COc1ccc(Nc2nc3ccc(OC)cc3s2)cc1 > 30 µM
COc1ccc(/C=C/C(=O)NC2CCN(Cc3ccccc3)CC2)cc1OC > 30 µM
CNc1nc(N)c(C(=O)C(C)(C)C)s1 > 30 µM
CS(=O)(=O)N(CCc1ccccc1)CC(=O)N1CCN(c2ccccc2F)CC1 > 30 µM
CCN1C(=O)[C@H]2[C@@H](c3ccc(-c4ccccc4)cc3)N[C@@](CC(C)C)(C(=O)OC)[C@H]2C1=O > 30 µM
CCOC(=O)c1c(C)[nH]c(O)c1C=Nc1ccccc1 > 30 µM
Nc1nonc1-n1nnc(C(=O)N/N=C/c2c(Cl)cccc2Cl)c1CN1CCOCC1 > 30 µM
CCOc1ccc(OCC)c(NC(=O)CSc2nnc(C3CC3)n2CC)c1 > 30 µM
COCC(C)n1c(C)cc(C(=O)COC(=O)c2ccc3c(c2)NC(=O)CS3)c1C (stereo unspecified) > 30 µM
Nc1ccc2oc(-c3ccccc3Cl)cc(=O)c2c1O > 30 µM
CCc1c(C(=O)Nc2ccccc2C(N)=O)csc1C > 30 µM
CC(=O)Oc1cc(C)cc2oc(=O)cc(-c3ccccc3)c12 > 30 µM
CC(C)CNc1nc(N)c([N+](=O)[O-])c(N2CCCCCC2)n1 > 30 µM
O=C1Nc2cc(C(=O)NCCCN3CCOCC3)ccc2S/C1=C/c1ccccc1F > 30 µM
Fc1ccccc1CSc1nnc(-c2ccccc2)o1 > 30 µM
CCOC(=O)CSc1ccc2nnc(-c3cccs3)n2n1 > 30 µM
CCC(C)Nc1nc(N)c([N+](=O)[O-])c(NCCO)n1 (stereo unspecified) > 30 µM
COc1ccccc1Nc1nc(NCCC(C)C)nc(N)c1[N+](=O)[O-] > 30 µM
CC(CC(=O)Nc1nnc(C(C)(C)C)s1)c1ccccc1 (stereo unspecified) > 30 µM
COc1cccc2cc(C(=O)Oc3ccccc3)c(=O)oc12 > 30 µM
CCOc1ccc(NC(=O)Nc2cnccn2)cc1 > 30 µM
CC(C)CCNc1nc(N)c([N+](=O)[O-])c(NC2CCCCC2)n1 > 30 µM
CCn1c(SCC(=O)Nc2ccccc2Cl)nnc1C1CC1 > 30 µM
Cc1ccc(NC(=O)CSCc2ccc(F)cc2)cc1 > 30 µM
Fc1ccc(Nc2nc(-c3ccncc3)nc3ccccc23)cc1 > 30 µM
Cc1ccc(CNS(=O)(=O)c2c(C)[nH]c(=O)[nH]c2=O)cc1 > 30 µM
O=C(O)/C=C/c1cccc2c1OCCO2 > 30 µM
COc1ccccc1C(=O)Oc1ccc(C(C)(C)C)cc1 > 30 µM
C=CCn1c(=O)c(C(=O)NCc2ccc(Cl)cc2)c(O)c2ccccc21 > 30 µM
O=C(c1cccs1)c1coc2ccc(O)c(CN3CCOCC3)c12 > 30 µM
Cc1nc2sc(C(c3cccc(F)c3)N3CC(C)OC(C)C3)c(O)n2n1 (stereo unspecified) > 30 µM
Nc1ccc(C(=O)Nc2ccccc2C(=O)O)cc1 > 30 µM
NC(=O)c1c(NC(=O)CN2CCCC2)sc2c1CCCC2 > 30 µM
COc1ccccc1N1CCN(CCCNC(=O)C2CCCN(c3ncnc4c3nc3n4CCCCC3)C2)CC1 (stereo unspecified) > 30 µM
COCCNc1nc(N)c([N+](=O)[O-])c(Nc2ccc(F)cc2)n1 > 30 µM
CN1CCc2c(sc3c2c(=O)n(-c2ccccc2)c2nnc(SCc4ccccc4)n32)C1 > 30 µM
COc1ccc(OC)c(C(=O)c2coc3ccc(OC)cc23)c1 > 30 µM
Cc1ccc(CNc2nc(N)c([N+](=O)[O-])c(Nc3cccc(F)c3)n2)cc1 > 30 µM
O=C(O)c1ccccc1N/N=C\c1ccnc2ccccc12 > 30 µM
Cc1ccc2c(c1)cc1c(=O)[nH]ncn12 > 30 µM
CCN(CC)Cc1c(C(=O)OC)nnn1-c1nonc1N > 30 µM
COc1cccc2cc(C(=O)CS(=O)(=O)c3ccc(C)cc3)c(=O)oc12 > 30 µM
CCC(CC)NC(=O)COC(=O)c1ccc2c(c1)C(=O)N(Cc1ccco1)C2=O > 30 µM
Cc1cc(OC(C)C)c2c(-c3ccccc3)cc(=O)oc2c1 > 30 µM
CCC(C)Nc1nc(N)c([N+](=O)[O-])c(Nc2ccccc2OC)n1 (stereo unspecified) > 30 µM
O=C1Nc2cc(C(=O)NCCCN3CCCC3)ccc2S/C1=C/c1ccccc1F > 30 µM
COc1cccc(C(=O)NCCCNC(=O)c2cccc(OC)c2)c1 > 30 µM
O=C(O)CCn1cc(/C=C\C(=O)c2ccc(Cl)cc2)c(-c2cccc(Br)c2)n1 > 30 µM
O=C1c2ccccc2-c2onc3ccc(NCCCn4ccnc4)c1c23 > 30 µM
CCc1ccc(CNC(=O)C2CCC(=O)N(CCc3ccc(Cl)cc3)C2)nc1 (stereo unspecified) > 30 µM

Reprinted at random: 6 compounds from above
EC50, inactive:
Nc1nc(NCc2ccco2)nc(Nc2ccccc2)c1[N+](=O)[O-] > 30 µM
CCOC(=O)c1c(C)[nH]c(O)c1C=Nc1ccccc1 > 30 µM
CCc1c(C(=O)Nc2ccccc2C(N)=O)csc1C > 30 µM
CCC(CC)NC(=O)COC(=O)c1ccc2c(c1)C(=O)N(Cc1ccco1)C2=O > 30 µM
Cc1ccc(Nc2nc(N)c([N+](=O)[O-])c(NCc3ccco3)n2)cc1 > 30 µM
N#Cc1ccc(CSc2nnc(-c3ccncc3)o2)cc1 > 30 µM
